Drawing on publication PMC3701710, this text covers binding for 1 substance.

Chains of the proteins cited; added tags and fusions are not shown.
UniProt Q08211: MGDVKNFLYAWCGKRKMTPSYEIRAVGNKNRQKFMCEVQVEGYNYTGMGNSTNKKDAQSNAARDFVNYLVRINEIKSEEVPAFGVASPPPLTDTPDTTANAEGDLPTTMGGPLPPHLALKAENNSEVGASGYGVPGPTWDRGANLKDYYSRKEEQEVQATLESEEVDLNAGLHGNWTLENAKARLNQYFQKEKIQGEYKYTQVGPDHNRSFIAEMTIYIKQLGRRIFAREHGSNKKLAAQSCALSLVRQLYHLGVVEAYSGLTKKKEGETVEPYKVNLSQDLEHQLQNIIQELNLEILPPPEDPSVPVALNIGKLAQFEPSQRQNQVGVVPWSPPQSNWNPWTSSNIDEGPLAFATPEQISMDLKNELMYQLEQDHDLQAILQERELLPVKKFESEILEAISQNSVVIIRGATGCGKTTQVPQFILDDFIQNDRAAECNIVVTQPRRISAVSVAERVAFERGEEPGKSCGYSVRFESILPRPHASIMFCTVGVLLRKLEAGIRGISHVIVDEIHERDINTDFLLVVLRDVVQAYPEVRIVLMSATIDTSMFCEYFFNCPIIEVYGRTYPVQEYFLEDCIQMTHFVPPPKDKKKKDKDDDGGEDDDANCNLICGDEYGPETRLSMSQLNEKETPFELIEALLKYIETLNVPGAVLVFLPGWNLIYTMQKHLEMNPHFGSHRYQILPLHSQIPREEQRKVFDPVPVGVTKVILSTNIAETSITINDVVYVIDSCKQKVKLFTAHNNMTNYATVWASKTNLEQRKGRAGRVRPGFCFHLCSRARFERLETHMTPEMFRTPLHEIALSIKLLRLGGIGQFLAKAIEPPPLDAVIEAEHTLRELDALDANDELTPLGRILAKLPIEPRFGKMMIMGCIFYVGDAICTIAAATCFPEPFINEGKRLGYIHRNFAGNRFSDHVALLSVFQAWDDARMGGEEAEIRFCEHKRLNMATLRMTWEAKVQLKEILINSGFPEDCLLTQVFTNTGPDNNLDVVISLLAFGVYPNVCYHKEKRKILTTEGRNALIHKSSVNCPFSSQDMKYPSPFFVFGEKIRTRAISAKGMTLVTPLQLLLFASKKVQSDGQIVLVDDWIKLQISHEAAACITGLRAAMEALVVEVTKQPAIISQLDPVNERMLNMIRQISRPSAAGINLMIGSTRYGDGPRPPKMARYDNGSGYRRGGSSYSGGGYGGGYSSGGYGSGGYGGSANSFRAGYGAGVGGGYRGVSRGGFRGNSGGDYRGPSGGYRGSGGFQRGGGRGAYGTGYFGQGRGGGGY
UniProt P19525: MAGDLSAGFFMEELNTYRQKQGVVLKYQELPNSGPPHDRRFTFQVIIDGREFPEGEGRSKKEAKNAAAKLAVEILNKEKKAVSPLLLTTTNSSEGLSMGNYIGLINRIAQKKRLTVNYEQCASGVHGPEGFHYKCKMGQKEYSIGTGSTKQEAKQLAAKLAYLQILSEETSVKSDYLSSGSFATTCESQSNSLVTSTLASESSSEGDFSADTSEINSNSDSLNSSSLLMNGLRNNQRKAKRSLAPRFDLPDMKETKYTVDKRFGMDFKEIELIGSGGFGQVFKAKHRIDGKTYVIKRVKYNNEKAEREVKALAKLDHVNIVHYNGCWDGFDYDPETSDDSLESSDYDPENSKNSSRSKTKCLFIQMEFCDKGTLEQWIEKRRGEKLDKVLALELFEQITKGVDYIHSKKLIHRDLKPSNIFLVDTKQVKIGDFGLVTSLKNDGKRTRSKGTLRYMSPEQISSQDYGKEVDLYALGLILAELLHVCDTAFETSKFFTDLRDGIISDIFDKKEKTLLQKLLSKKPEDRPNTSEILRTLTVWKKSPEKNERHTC

Results are given in words; binding and its absence hold for the method and conditions named. Binding seen in cells or lysates may run through a third protein. Some binding calls cover weakened binding; strength is not graded here.

This assay deals with RNA helicase A (RHA)/DHX9 (human (endogenous in A549, HeLa, THP1)) (UniProt Q08211). Kind of assay: co-IP; uninfected HeLa cell lysates treated with RNase V1 (10 u/ml) at 4°C overnight; IP with rabbit anti-DHX9; blot with mouse anti-PKR and anti-DHX9.

Turning to “Protein Kinase R (PKR) (from UniProt P19525 1-551)”, the binding entry is “binds”.
